This note sets out measurements from PMC9215249.

These are yes or no findings as the source states them, for the method shown. In cells and extracts the contact can be indirect. Sequences can lack the tags named with a protein.

The test addresses T1, myc-ANXA1 (porcine (cDNA from PK15 cells)) (UniProt P19619).
T1 sequence: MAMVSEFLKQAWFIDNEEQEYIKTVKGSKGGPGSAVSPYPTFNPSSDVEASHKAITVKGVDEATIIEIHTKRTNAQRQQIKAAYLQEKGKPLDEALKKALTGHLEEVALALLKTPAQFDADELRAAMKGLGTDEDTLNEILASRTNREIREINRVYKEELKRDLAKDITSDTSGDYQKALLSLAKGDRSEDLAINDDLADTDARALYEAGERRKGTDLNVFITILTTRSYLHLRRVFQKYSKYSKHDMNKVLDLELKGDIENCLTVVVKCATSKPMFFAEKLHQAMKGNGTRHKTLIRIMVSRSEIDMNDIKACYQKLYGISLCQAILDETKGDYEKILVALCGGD
In words: co-IP.

Consider IRF3, for which the binding result is recorded as “no binding”.
